At least one structure is not confirmed: it was looked up by name or label, or the drawing left a doubt.
Test system: 3T3-L1 mouse pre-adipocyte
Assay: 3T3-L1 pre-adipocyte differentiation (adipogenesis) assay
Type: cell-based
Settings: added Day 0 of differentiation
Method: We cultured and differentiated mouse 3T3-L1 preadipocytes and primary fibroblasts isolated from 16-days old embryos using standard procedures (Green, et al., Cell 3:127-33 (1974)). After reaching confluence (DMEM, high glucose, 10% calf serum, Day 0), cells were differentiated (3-isobutyl-1-methylxanthine 0.5 mM, dexamethasone 1 μM, insulin 1.7 μM) for 48 h before media replacement every 48 h (DMEM, 10% FCS insulin, 1.7 μM) for 7 days.
Northern blotting was performed as before with HyBond (Amersham; Ziouzenkova, et al., Proc. Natl. Acad. Sci. USA 100:2730-5 (2003)).
We determined triglyceride content in lysed cells (RIPA buffer, complete protease inhibitor cocktail, Roche) using an enzymatic colorimetric assay (Wako, Japan) and adiponectin levels via ELISA (R&D, Minneapolis). For Western blotting, cell lysates, plasma, and tissue lysates underwent reducing gel separation (10% acrylamide) and hybridization with RXR (Santa Cruz, Calif.), mouse RBP4 (Alpco), or UCP1 (Chemicon) antibodies.
To test Rald effects on adipogenesis, we performed 3T3-L1 mouse pre-adipocyte differentiation assays in the presence of Rald concentrations similar to those found in fat in vivo. Rald levels as low as 100 nM suppressed mRNA expression of the adipogenic target genes CD36, adiponectin, and aP2. […]

CC1=C(/C=C/C(C)=C/C=C/C(C)=C/C(=O)O)C(C)(C)CCC1 [all-trans RA, Retinoic acid, reference compound]
adiponectin expression, compound added early: inhibited

From patent US9078852B2, “Retinaldehyde in the treatment of obesity, diabetes and other conditions” (The Brigham and Women's Hospital, Inc., priority 2008, dated 2015)
